Source: patent publication US20260317388A1, “SELECTIVE NUCLEAR BLOCKADE FOR THE TREATMENT OF SEPSIS” (priority 2023, published 2026)
Part of at least one peptide drawing is inferred or uncertain, most often the ends. Positions of bridges follow the written chain, without caps; N, C: chain ends. Residues, ends and D or L forms follow the SMILES beside them. No end group written: not given here.

Columns and labels:
Imp beta = assay: Importin selectivity in cell culture and preclinical studies
Importin beta = assay: Binding studies (importin selectivity)

| Compound | Imp beta-selective (Imp beta) | Importin beta-selective inhibitor (Importin beta) |
| --- | --- | --- |
| CSCC[C@@H]1NC(=O)[C@H](CC(C)C)NC(=O)[C@H](CCCCN)NC(=O)[C@H](CCC(N)=O)NC(=O)[C@H](CCC(=O)O)NC(=O)[C@H](CC(=O)O)NC(=O)[C@H](CCCNC(=N)N)NC(=O)[C@H](CCC(N)=O)NC(=O)[C@H](C(C)C)NC(=O)[C@@H](NC(=O)[C@@H]2CCCN2C(=O)[C@H](C)NC(=O)[C@H](CC(C)C)NC(=O)[C@H](CC(C)C)NC(=O)[C@H](C)NC(=O)[C@H](CC(C)C)NC(=O)[C@H](CC(C)C)NC(=O)[C@@H](NC(=O)[C@H](C)NC(=O)[C@@H]2CCCN2C(=O)[C@H](CC(C)C)NC(=O)[C@H](CC(C)C)NC(=O)[C@H](C)NC(=O)[C@@H](NC(=O)[C@H](C)NC(=O)[C@H](C)N)C(C)C)C(C)C)CSSC[C@@H](C(=O)O)NC(=O)[C@@H]2CCCN2C1=O [cSN50.1β] (H-AAVALLPAVLLALLAPCVQRDEQKLMPC-OH; disulfide 17-28) | selective (cell | – |
| AAVALLPAVLLALLAPVQRDEQKLMP [SM12] | – | selective |
